PubChem BioAssay AID1347076 (National Center for Advancing Translational Sciences (NCATS), 2019)
Among all 400,000 compounds or so, about 13,000 (3.2%) were called active. Inconclusive means that the source gave no clear call. Such entries were picked first, then a sample of the others. Calls come from the whole dose curve; as a rule, active = well fitted cell-killing curve with a large enough effect; inconclusive = small, poorly fitted or top-dose-only effect, or effect the other way; inactive = flat fitted curve, though single readings scatter. Potencies beside an inconclusive call are fits to weak or partial responses and may not hold up.
% is set by controls: 0 for no effect and ±100 for the full control effect; potency is the fitted concentration of half-maximal effect.

Assay: qHTS assay for MDR1-selective chemotherapeutics: Primary screen using the drug-selected MDR subline cells KB-V1; note: nearly all actives have a fitted effect of over 60% in size
Details: KB-V1 MDR cells viability, CellTiter-Glo, 72 h; activity change, negative = cytotoxicity: at 46.1 µM (top of the series)
Summary of the method: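 Cytotoxicity toward P-gp-expressing KB-V1 cells was determined as loss of CellTiter-Glo luminescence after 72 h at 37 degrees C. Compounds were tested in quantitative HTS format across a concentration range, with curves fitted to normalized data.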
With CCOc1ccc(-c2cccc(NS(=O)(=O)c3ccc([N+](=O)[O-])cc3)c2)nn1 the Potency was inconclusive: 9.2 µM [cytotoxic, partial curve, poor fit].
In the case of Nc1[nH]c(=O)[nH]c(=O)c1N=Nc1ccccc1Cl, the Potency is reported as inconclusive: 2.31 µM [cytotoxic, partial curve, poor fit].
In the case of COc1ccc(C(C)=NNc2ccc([N+](=O)[O-])cc2S(=O)(=O)Nc2ccccc2C(=O)O)c(OC)c1, the Potency is reported as “inactive”.
With Cc1ccc(CN2CCN(CC(=O)NCc3ccccc3Cl)C2=O)cc1 the Potency was “inactive”.
For Nn1c(-c2ccccc2)nc2ccccc2c1=O, the Potency was inconclusive: 29.1 µM [rising, single point].
In the case of O=C1Nc2ccccc2-c2nnnn2C1N1CCC(Cc2ccccc2)CC1 (stereo unspecified), the Potency is reported as inconclusive: 14.6 µM [cytotoxic, partial curve, poor fit].
For O=C1CCC(C(=O)Nc2cccc(S(=O)(=O)Nc3ccccc3F)c2)=NN1, the Potency was “inactive”.
In the case of FC(F)Sc1ccc(NC(=S)NC2CCCC2)cc1, the Potency is reported as inconclusive: 16.4 µM [cytotoxic, partial curve].
For O=C(CCC(=O)c1cccs1)NNC(=O)c1ccc(Cl)cc1, the Potency was inconclusive: 20.6 µM [rising, single point].
In the case of COc1ccc(OC)c(N(CC(=O)Nc2cccnc2)S(=O)(=O)c2ccccc2)c1, the Potency is reported as inconclusive: 10.3 µM [cytotoxic, partial curve].
For Cc1cc(C)n(-c2nc3ccccc3nc2Nc2cc(C(=O)O)ccc2C)n1, the Potency was inconclusive: 29.1 µM [rising, single point].
For CC(=O)Nc1ccc(NC(=O)C2(C)Cc3c(-c4ccc5c(c4)OCO5)ccnc3O2)cc1 (stereo unspecified), the Potency was “inactive”.
With Cc1c(Cl)cccc1NC(=O)CCn1nc(C)c2c(C)n(-c3ccccc3)nc2c1=O the Potency was inconclusive: 20.6 µM [rising, partial curve].
With Cc1cccc(C)c1-n1cccc1/C=C1\SC(=S)N(c2cccc(C(=O)O)c2)C1=O the Potency was “inactive”.
For O=C1c2c(-c3ccc(Br)cc3)noc2CCN1Cc1cn(-c2ccccc2)nn1, the Potency was inconclusive: 25.9 µM [cytotoxic, single point].
In the case of CCOc1ccccc1NC(=O)CN1C(=O)C2(SCC(=O)N2c2cccc(F)c2)c2ccccc21 (stereo unspecified), the Potency is reported as “inactive”.
With COC(=O)c1cc2c(C)nn(-c3ccccc3)c2s1 the Potency was inconclusive: 18.4 µM [cytotoxic, single point].
In the case of CNC(=O)Cc1nc2ccccc2n1CC(=O)Nc1cc(C)cc(C)c1, the Potency is reported as inconclusive: 18.4 µM [rising, single point].
In the case of CCOc1cc(C(=O)Nc2ccc3c4c(cccc24)C(=O)N3CC)cc(OCC)c1OCC, the Potency is reported as active: 9.2 µM.
In the case of O=C(C[C@H]1CC[C@@H]2[C@H](COC[C@H](O)CN2Cc2cccc(C(F)(F)F)c2)O1)NCCc1ccccc1, the Potency is reported as inconclusive: 13 µM [cytotoxic, partial curve].
With COc1ccc(N2CCN(S(=O)(=O)c3ccc4c(c3)CCCC4)CC2)c([N+](=O)[O-])c1 the Potency was inconclusive: 20.6 µM [cytotoxic, single point].
With Cc1ccc(CSc2nc3ccccc3cc2C=O)cc1 the Potency was inconclusive: 9.2 µM [cytotoxic, partial curve, poor fit].
For O=C(N[C@H]1c2ccccc2C[C@H]1O)[C@H]1O[C@@H](n2ccc(=O)[nH]c2=O)[C@H](O)[C@@H]1O, the Potency was “inactive”.
For CCOC(=O)c1cnc(SC)nc1Sc1ccc(Cl)cc1Cl, the Potency was inconclusive: 29.1 µM [cytotoxic, single point].
With CCN(CC)Cc1c(O)ccc2occ(C(=O)c3ccc(OC)cc3)c12 the Potency was inconclusive: 20.6 µM [cytotoxic, partial curve].
In the case of Cc1c(C(=O)N2CCN(S(=O)(=O)c3cccs3)CC2)oc2ccc(F)cc12, the Potency is reported as “inactive”.
In the case of CCCCCc1nnc(NC(=O)CN2C(=O)C3CCCCC3C2=O)s1 (stereo unspecified), the Potency is reported as “inactive”.
For CC12CCC(=O)N1C(C(=O)Nc1cc(C(F)(F)F)ccc1N1CCCCC1)CS2 (stereo unspecified), the Potency was “inactive”.
For Cc1ccc(-c2ccc(/C=N/O)o2)cc1[N+](=O)[O-], the Potency was “inactive”.
For N#Cc1c(-c2ccccc2)c(-c2ccccc2)nn(CC(=O)NNC(=O)Nc2ccccc2)c1=O, the Potency was “inactive”.
In the case of O=C(c1nc2ccc(Cl)cn2c1CN1CCC[C@H]1CO)N1CCc2ccccc2C1, the Potency is reported as inconclusive: 16.4 µM [cytotoxic, single point].
In the case of Cn1cccc1/C=N\NC(=O)C1COc2ccccc2O1 (stereo unspecified), the Potency is reported as inconclusive: 14.6 µM [rising, partial curve, poor fit].
In the case of Cn1c(=O)c2c(nc(CN3CCOCC3)n2CCc2ccccc2)n(C)c1=O, the Potency is reported as “inactive”.
With CC(=O)N1CCN(c2ccc(Oc3ccc([N+](=O)[O-])c(C(F)(F)F)c3)cc2)CC1 the Potency was active: 5.17 µM.
In the case of COc1ccc(CC(NC(C)=O)C(=O)NC2CCN(c3nc(C)cc(C)c3C#N)CC2)cc1OC (stereo unspecified), the Potency is reported as “inactive”.
With CC(C)(C)OC(=O)N1CCN(C(=O)c2nc[nH]c2C(=O)N2CCN(c3ccccc3)CC2)CC1 the Potency was “inactive”.
With COc1cccc(CNC(=O)COC(=O)c2ccc(C(=O)c3ccccc3)cc2)c1 the Potency was “inactive”.
In the case of COc1ccc(OC)c(C2=NS(=O)(=O)N(C)C(C(=O)Nc3cccc(C(C)=O)c3)=C2)c1, the Potency is reported as “inactive”.
For Cc1noc(C)c1C(=O)N1CCCc2ccccc21, the Potency was inconclusive: 29.1 µM [rising, single point].
In the case of CSCCC(NC(=O)COc1ccccc1)C(=O)NCCOc1ccccc1 (stereo unspecified), the activity change, negative = cytotoxicity is reported as inconclusive: 9.49%.
In the case of COC(=O)[C@]12CCCCC=C1N(Cc1cccc3ccccc13)C(=O)[C@H](CC(=O)NCC13CC4CC(CC(C4)C1)C3)C2, the Potency is reported as inconclusive: 32.6 µM [cytotoxic, single point].
For CCOC(=O)C1(S(=O)(=O)c2ccccc2)CCN(Cc2ccc(Cl)cc2)CC1, the Potency was active: 10.3 µM.
For Cc1cc(S(=O)(=O)N(Cc2ccc3c(c2)OCO3)CC2CCCO2)ccc1-n1cnnn1 (stereo unspecified), the Potency was inconclusive: 18.4 µM [cytotoxic, partial curve].
In the case of Cc1ccccc1NC(=O)c1cccc(N2C(=O)C3C4CCC(C4)C3C2=O)c1 (stereo unspecified), the Potency is reported as active: 23.1 µM.
In the case of Clc1ccc(-n2ncc3c(NCc4ccc5c(c4)OCO5)ncnc32)cc1, the Potency is reported as “inactive”.
For CCc1nc2ccc(C(=O)NCc3ccccc3OC)cn2c1N(CCC(C)C)CCN(C)C, the Potency was inconclusive: 10.3 µM [cytotoxic, partial curve].
For Cc1ccc(Cn2ccn(Cc3ccccc3C)c(=O)c2=O)cc1, the Potency was “inactive”.
In the case of Cc1ccccc1C(=O)NCC(c1ccco1)N1CCc2ccccc2C1 (stereo unspecified), the Potency is reported as inconclusive: 29.1 µM [cytotoxic, single point].
In the case of COC(=O)c1cc(CC(=O)c2ccc(O)cc2O)c(C)o1, the Potency is reported as “inactive”.
With O=C(c1ccco1)N1CCN(C(=O)c2cn(-c3ccccc3)nc2-c2ccc(F)cc2)CC1 the Potency was inconclusive: 0.411 µM [cytotoxic, full curve, poor fit].
For O=C(CCC1CCCN(c2ncccn2)C1)N1CCN(c2ccccn2)CC1 (stereo unspecified), the Potency was inconclusive: 1.03 µM [rising, partial curve].
In the case of Clc1ccc(OCc2cc(-c3ccccc3)no2)c(Cl)c1, the Potency is reported as inconclusive: 29.1 µM [cytotoxic, single point].
For Cc1c(C)c2ccc(OCC(=O)N3CCC[C@@H]3C(=O)O)c(C)c2oc1=O, the Potency was inconclusive: 20.6 µM [rising, single point].
For O=c1[nH]c(CN2CCN(Cc3ccc4c(c3)OCO4)CC2)nc2ccccc12, the Potency was inconclusive: 14.6 µM [cytotoxic, partial curve].
With CN(C)N=C1c2cc(S(=O)(=O)N(C)C)ccc2-c2ccc(S(=O)(=O)N(C)C)cc21 the Potency was “inactive”.
In the case of COc1ccc(/C=N/OC(=O)Nc2ccccc2OC)cc1, the Potency is reported as active: 9.2 µM.
In the case of CCC(=O)Nc1ccc(/C(C)=N\NS(=O)(=O)c2ccc(C)cc2)cc1, the Potency is reported as “inactive”.
For Nc1ccc2c(c1)Cc1cc([N+](=O)[O-])ccc1-2, the Potency was “inactive”.
In the case of CCOc1ccc(NC(=O)NCCCSC2CCCCC2)cc1, the Potency is reported as “inactive”.
With Cc1ccc(-c2nnc(SCC(=O)N(C)C)nc2-c2ccc(C)cc2)cc1 the Potency was inconclusive: 9.2 µM [cytotoxic, partial curve].
With COc1ccc(S(=O)(=O)N2CCN(C(=O)c3oc4ccccc4c3C)CC2)cc1 the Potency was inconclusive: 8.2 µM [cytotoxic, partial curve].
With O=C(c1ccccc1F)N1CCN(c2cnn(-c3cccc(Cl)c3)c(=O)c2Cl)CC1 the Potency was inconclusive: 9.2 µM [cytotoxic, partial curve].
For Cc1cccc(C)c1NC(=O)C1(C)CSCC(=O)N1CCC(C)C (stereo unspecified), the Potency was inconclusive: 8.2 µM [cytotoxic, partial curve, poor fit].
For OC(Cc1ccncc1)c1ccccc1Cl (stereo unspecified), the Potency was “inactive”.
With CN1CCN(C(=O)CCN2C(=O)/C(=C\c3ccccc3F)SC2=S)CC1 the Potency was “inactive”.
In the case of CN1CCN(S(=O)(=O)c2ccc(C#N)cc2)C(c2ccccc2)C1 (stereo unspecified), the Potency is reported as inconclusive: 8.2 µM [cytotoxic, single point].
In the case of COc1ccc(-n2nc3c(N4CCCC(C(=O)NCCc5ccc(C)cc5)C4)nnc(C)c3c2C)cc1 (stereo unspecified), the Potency is reported as inconclusive: 23.1 µM [cytotoxic, single point].
With CC(=O)C(=[N+]=[N-])C(=O)NCc1ccccc1 the Potency was inconclusive: 20.6 µM [rising, single point].
In the case of CC(C)c1ccc(C2(C)NC(=O)N(C(C)C(=O)Nc3ccc(N4CCOCC4)cc3)C2=O)cc1 (stereo unspecified), the Potency is reported as “inactive”.
For COCCNC(=O)CC(NS(=O)(=O)c1ccc(NC(C)=O)cc1)C(C)C (stereo unspecified), the Potency was inconclusive: 23.1 µM [rising, single point].
